Paper PMC10509304
Results are given in words; binding and its absence hold for the method and conditions named. In cells and extracts the contact can be indirect. A result given as binding can be weak or reduced; the word gives no strength. Sequences can lack the tags named with a protein.

Columns and labels:
[1] = molecular target: T1, murine CD81 with C-terminal 3xFLAG epitope, transiently expressed in HEK293 (mouse) (UniProt P35762); test: co-IP; transient co-expression in HEK293 cells; lysis in IP buffer with 1% Triton X-100; 3xFLAG-tagged tetraspanin precipitated with anti-FLAG M2 agarose; Western blot
T1 sequence: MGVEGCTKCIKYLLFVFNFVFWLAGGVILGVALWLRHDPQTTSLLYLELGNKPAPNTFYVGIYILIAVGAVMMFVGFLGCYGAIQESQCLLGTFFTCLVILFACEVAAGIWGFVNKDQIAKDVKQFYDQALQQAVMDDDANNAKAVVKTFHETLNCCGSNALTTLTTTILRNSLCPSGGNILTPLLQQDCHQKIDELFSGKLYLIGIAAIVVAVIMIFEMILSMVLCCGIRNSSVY

[2] = molecular target: T2, murine CD9 with C-terminal 3xFLAG epitope, transiently expressed in HEK293 (mouse) (UniProt P40240); test: as above
T2 sequence: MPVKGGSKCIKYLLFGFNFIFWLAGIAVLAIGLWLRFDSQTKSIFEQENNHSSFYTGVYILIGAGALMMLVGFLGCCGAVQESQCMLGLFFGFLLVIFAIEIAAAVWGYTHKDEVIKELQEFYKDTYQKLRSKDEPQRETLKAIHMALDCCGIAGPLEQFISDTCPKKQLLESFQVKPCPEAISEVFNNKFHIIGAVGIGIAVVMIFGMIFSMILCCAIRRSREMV

[3] = molecular target: T1, murine CD81 with C-terminal 3xFLAG epitope, transiently expressed in HEK293 (mouse); test: co-IP; transient co-expression in HEK293 cells; lysis in IP buffer (50 mM Tris/HCl pH 7.4, 150 mM NaCl, 4 mM EDTA) with 1% Brij-98; 3xFLAG-tagged tetraspanin precipitated with anti-FLAG M2 agarose overnight at 4°C; Western blot
[4] = molecular target: T2, murine CD9 with C-terminal 3xFLAG epitope, transiently expressed in HEK293 (mouse); test: as above

binding [1]: binds
binding [2]: binds
binding [3]: binds
binding [4]: binds
Substance: N-terminal fragment (NTF) of HA-tagged murine TNF (mouse) (domain or fragment)
